In this experiment the target is T1, FLAG-tagged FAM84A (human) (UniProt Q96KN4).
T1 sequence: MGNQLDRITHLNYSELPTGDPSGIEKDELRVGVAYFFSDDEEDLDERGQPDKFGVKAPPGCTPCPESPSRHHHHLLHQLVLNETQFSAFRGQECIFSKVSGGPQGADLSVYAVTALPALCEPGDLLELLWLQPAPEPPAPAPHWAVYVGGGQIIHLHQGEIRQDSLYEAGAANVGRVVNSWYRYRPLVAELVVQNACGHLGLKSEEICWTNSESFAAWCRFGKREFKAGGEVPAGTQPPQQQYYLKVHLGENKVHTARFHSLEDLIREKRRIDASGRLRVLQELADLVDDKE
The experiment is described as follows: affinity purification with mass spectrometry; anti-FLAG antibody (IgG as control) on lysate of FAM84A^FLAG-overexpressing CSC spheres, protein A/G magnetic beads, 5 washes with lysis buffer, SDS-PAGE, silver-stained bands cut out for mass spectrometry.

Amino acid sequences for entries named in this document (tags omitted).
UniProt P35222: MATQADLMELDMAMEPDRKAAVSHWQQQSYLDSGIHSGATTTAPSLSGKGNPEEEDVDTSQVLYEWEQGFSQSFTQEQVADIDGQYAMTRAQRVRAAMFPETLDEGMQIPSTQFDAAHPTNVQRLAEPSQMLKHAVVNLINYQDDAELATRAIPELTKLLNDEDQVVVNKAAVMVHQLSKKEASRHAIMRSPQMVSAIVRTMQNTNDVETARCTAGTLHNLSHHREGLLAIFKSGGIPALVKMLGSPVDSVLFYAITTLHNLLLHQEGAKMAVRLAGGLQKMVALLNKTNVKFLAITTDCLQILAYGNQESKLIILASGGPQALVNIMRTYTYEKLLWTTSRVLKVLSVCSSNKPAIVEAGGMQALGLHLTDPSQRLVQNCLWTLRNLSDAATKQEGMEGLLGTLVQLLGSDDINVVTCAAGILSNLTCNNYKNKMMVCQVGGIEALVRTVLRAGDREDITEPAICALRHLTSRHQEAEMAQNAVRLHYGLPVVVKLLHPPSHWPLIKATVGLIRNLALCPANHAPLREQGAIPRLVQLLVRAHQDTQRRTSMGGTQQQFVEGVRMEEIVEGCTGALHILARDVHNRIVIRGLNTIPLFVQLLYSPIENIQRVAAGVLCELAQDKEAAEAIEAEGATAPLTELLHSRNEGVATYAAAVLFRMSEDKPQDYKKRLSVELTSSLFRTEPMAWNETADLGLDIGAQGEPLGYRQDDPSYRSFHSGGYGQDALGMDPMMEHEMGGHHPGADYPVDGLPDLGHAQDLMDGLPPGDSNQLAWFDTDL

Results are given in words; binding and its absence hold for the method and conditions named. In cells and extracts the contact can be indirect. A yes stands for co-enrichment or nearness to the bait. Other partners may have been found. Sequences can lack the tags named with a protein.

β-catenin (from UniProt P35222 1-781): the binding entry is “binds”.
